These results are taken from doi:10.1101/2025.05.23.654710.

Construct, isoform or probe ends are uncertain for at least one entry. For part of these data: Negatives hold for the conditions tested. Protein sequences can lack the tags named with them.

The target in data set [1] is T1, Msn2 DBD (Saccharomyces cerevisiae) (UniProt P33748).
T1 sequence: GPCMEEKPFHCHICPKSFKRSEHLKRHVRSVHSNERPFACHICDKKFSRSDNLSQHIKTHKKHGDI
The data set is described as follows: EMSA. A general note: In EMSA bound probe runs differently from free probe, usually more slowly.

For data set [2], the target named is T2, Msn2 IDR (Saccharomyces cerevisiae) (UniProt P33748).
T2 sequence: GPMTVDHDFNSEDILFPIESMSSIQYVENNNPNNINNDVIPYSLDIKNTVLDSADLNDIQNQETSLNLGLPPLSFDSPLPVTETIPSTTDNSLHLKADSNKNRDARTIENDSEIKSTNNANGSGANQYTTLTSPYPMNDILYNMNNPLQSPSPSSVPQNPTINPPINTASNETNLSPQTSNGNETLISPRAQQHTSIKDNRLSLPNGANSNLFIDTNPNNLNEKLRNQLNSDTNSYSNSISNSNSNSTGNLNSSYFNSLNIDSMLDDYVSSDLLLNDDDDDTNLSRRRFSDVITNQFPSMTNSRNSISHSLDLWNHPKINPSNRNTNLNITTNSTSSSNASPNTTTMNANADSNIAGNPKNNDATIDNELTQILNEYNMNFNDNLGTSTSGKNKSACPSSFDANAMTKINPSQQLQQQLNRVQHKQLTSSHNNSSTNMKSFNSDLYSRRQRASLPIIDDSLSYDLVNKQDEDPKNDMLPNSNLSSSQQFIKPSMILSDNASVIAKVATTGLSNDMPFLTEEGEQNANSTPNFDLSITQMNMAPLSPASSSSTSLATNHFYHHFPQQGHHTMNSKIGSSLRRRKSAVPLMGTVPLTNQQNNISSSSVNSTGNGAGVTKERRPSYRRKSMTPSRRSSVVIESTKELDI
The data set is described as follows: EMSA.

Data set [3] concerns the target T3, Msn2 WT (Saccharomyces cerevisiae) (UniProt P33748).
T3 sequence: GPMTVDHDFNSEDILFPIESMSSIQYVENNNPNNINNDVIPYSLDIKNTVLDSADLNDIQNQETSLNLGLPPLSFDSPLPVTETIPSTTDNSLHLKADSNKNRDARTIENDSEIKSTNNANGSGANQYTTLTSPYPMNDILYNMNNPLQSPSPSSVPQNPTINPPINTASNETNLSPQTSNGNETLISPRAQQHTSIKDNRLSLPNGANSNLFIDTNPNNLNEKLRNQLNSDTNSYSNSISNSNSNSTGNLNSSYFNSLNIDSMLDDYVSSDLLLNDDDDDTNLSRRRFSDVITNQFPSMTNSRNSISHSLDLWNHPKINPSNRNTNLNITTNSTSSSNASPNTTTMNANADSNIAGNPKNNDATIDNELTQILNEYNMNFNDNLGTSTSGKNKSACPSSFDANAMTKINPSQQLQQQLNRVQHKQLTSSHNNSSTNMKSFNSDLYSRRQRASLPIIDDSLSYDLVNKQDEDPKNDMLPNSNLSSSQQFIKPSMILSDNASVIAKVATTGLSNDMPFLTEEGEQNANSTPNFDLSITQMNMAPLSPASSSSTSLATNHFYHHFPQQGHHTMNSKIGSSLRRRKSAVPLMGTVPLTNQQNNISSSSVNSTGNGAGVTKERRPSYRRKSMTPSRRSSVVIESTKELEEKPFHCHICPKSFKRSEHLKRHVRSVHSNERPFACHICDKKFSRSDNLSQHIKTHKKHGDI
The experiment in a line: mass photometry. The settings on record: 50 nM each, more uniform DNA+1P to DNA+3P, higher free protein.

As for “CCTGCCACCTACACATACTTCCTACACAACCTGAGTCGTATTAATTTCGCG / CGCGAAATTATACGACTCAAGTTGTGTAGGAAGTATGTGTAGGTGGCGAGG [51 bp DNA without motif]”, the binding result in data set [1] is on record as “no binding”; in data set [2] it was “binds”; in data set [3] it was “binds”.
